According to patent EP0115640A2, “Substituted 4-imidazolyl-pyrazoles, process for their preparation and medicaments containing them” (BAYER AG, priority 1983, dated 1984):
Some entries share one result that the patent states for a list of compounds. One block for each compound: values may come before it.

Sequences of proteins named here, by UniProt entry; tags and fusion partners are left off. Residues count along the entry.
UniProt P23219, 24-599: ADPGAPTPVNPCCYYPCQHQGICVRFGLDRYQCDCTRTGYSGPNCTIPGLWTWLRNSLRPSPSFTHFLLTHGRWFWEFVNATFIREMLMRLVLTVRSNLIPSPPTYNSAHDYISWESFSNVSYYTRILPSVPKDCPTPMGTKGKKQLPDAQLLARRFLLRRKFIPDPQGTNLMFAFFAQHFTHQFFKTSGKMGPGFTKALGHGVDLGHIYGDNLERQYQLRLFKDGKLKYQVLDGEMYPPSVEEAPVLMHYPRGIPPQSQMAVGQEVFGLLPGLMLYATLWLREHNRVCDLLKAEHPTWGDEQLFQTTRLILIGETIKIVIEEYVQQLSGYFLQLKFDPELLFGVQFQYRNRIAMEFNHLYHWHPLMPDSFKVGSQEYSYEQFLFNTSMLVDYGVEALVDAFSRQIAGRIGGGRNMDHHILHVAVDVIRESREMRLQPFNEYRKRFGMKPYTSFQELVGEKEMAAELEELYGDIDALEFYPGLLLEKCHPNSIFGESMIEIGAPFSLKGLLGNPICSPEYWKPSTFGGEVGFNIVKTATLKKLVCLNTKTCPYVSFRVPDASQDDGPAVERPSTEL

Key:
TXA2-Synthetase = biological target: T1, TXA2-Synthetase (Homo sapiens, UniProt P24557); assay: Thromboxane synthetase inhibition: 3H-arachidonic acid metabolism in washed human platelets (TLC, radioscanner); type: cell-based; details: result in words, Human-Thrombozyten, 3H-Arachidonsäure
T1 construct: Gewaschene Human-Thrombozyten von gesunden Spendern; endogenous in cells; host or cells: washed human platelets from healthy donors
T1 sequence (P24557 1-533): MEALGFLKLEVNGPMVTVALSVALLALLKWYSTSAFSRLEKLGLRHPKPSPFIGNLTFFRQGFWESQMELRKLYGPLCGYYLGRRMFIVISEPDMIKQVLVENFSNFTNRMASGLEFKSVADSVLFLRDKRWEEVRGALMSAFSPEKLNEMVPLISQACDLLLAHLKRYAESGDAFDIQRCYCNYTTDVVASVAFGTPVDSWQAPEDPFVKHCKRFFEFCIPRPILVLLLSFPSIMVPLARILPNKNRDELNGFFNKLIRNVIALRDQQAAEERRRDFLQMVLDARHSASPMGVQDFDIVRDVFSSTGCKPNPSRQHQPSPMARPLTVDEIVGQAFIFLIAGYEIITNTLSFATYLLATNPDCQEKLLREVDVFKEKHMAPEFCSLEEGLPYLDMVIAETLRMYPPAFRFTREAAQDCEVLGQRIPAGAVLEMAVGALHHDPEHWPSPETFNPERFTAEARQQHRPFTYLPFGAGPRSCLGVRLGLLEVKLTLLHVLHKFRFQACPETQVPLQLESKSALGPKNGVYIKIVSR

Cyclooxygenase = biological target: T2, Cyclooxygenase (Homo sapiens, UniProt P23219); assay: Effect on cyclooxygenase in the same 3H-arachidonic acid metabolism test in washed human platelets; type: cell-based; details: result in words, selectivity, Human-Thrombozyten, 3H-Arachidonsäure
T2 construct: Gewaschene Human-Thrombozyten von gesunden Spendern; endogenous in cells; host or cells: washed human platelets from healthy donors

Structure (SMILES): CC(C)(COc1ccc(Cl)cc1Cl)c1n[nH]cc1-n1ccnc1 [Beispiel 9]
TXA2-Synthese gehemmt (TXA2-Synthetase): gehemmt
Beeinflussung der Cyclooxygenase (Cyclooxygenase): ohne daß die Cyclooxygenase signifikant beeinflußt wird

Structure (SMILES): CC(CF)(CF)c1n[nH]cc1-n1ccnc1 [Beispiel 10]
TXA2-Synthese gehemmt (TXA2-Synthetase): gehemmt
Beeinflussung der Cyclooxygenase (Cyclooxygenase): ohne daß die Cyclooxygenase signifikant beeinflußt wird

Structure (SMILES): Cn1cc(-n2ccnc2)c(C(C)(C)COc2ccc(Cl)cc2)n1 [Beispiel 15]
TXA2-Synthese gehemmt (TXA2-Synthetase): gehemmt
Beeinflussung der Cyclooxygenase (Cyclooxygenase): ohne daß die Cyclooxygenase signifikant beeinflußt wird

Second part, led by results:

TXA2-Synthese gehemmt (TXA2-Synthetase): gehemmt
Structure (SMILES): CC(C)(C)c1n[nH]cc1-n1ccnc1 [Beispiel 1]
Beeinflussung der Cyclooxygenase (Cyclooxygenase): ohne daß die Cyclooxygenase signifikant beeinflußt wird

TXA2-Synthese gehemmt (TXA2-Synthetase): gehemmt
Structure (SMILES): Cn1cc(-n2ccnc2)c(C(C)(C)C)n1 [Beispiel 2, 3-tert.-Butyl-1-methyl-4-(imidazol-1-yl)-pyrazol]
Beeinflussung der Cyclooxygenase (Cyclooxygenase): ohne daß die Cyclooxygenase signifikant beeinflußt wird
